Measurements reported in PubChem BioAssay AID1053208 (Peter MacCallum Cancer Centre, 2014).
Here is an unselected part of about 17,000 reagents. 788 of all reagents (4.7%) were called active. 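Calls rest on z-score classes alone; an extra cut-off of viability at most 70% of control was not applied to them.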 The numbers tell different reagents against one gene apart. Further read-outs or replicates are left out here. Reagent sequences are not shown.

- Assay: 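Genes whose silencing cuts survival of bone tumour cells only with doxorubicin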 (primary screen)
- System: mouse osteosarcoma cells, early-passage culture from an engineered mouse model of fibroblastic bone tumour
- Reagents: siRNA pool against mouse genes, 40 nM
- Timing: about 120 h (48 h before drug, then 72 h with drug)
- Treatment: doxorubicin 100 nM for 72 h, roughly 30-40% inhibitory dose
- Measurement: 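Luminescent ATP signal taken as viability with or without 100 nM doxorubicin for 72 h; mean of two wells set against non-targeting siRNA and turned into robust z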
- Reading the numbers: viability z-score with doxorubicin: higher = more viable cells under doxorubicin; viability z-score without drug: higher = more viable cells with knock-down alone
- Hit rule: 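a pool counts as active when its viability z-score with doxorubicin is -2 or below and its z-score without drug lies between -2 and 2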

Or8g36 → combined z-score class = low cell count with doxorubicin only; viability z-score with doxorubicin = -2.25; viability z-score without drug = -0.84; outcome = active
Pthlh → combined z-score class = no change with or without drug; viability z-score with doxorubicin = 1.12; viability z-score without drug = 1.85; outcome = inactive
Nr2c1 → combined z-score class = no change with or without drug; viability z-score with doxorubicin = 0.45; viability z-score without drug = 1.01; outcome = inactive
Ncam2 → combined z-score class = no change with or without drug; viability z-score with doxorubicin = -0.22; viability z-score without drug = -1.35; outcome = inactive
H2bc26 → combined z-score class = no change with or without drug; viability z-score with doxorubicin = 0.22; viability z-score without drug = 0.17; outcome = inactive
Pgrmc2 → combined z-score class = no change with or without drug; viability z-score with doxorubicin = -1.35; viability z-score without drug = -0.84; outcome = inactive
Tnfaip8l1 → combined z-score class = no change with or without drug; viability z-score with doxorubicin = 1.35; viability z-score without drug = 0.67; outcome = inactive
Sirt1 → combined z-score class = no change with or without drug; viability z-score with doxorubicin = -0.45; viability z-score without drug = -1.52; outcome = inactive
Gcnt3 → combined z-score class = no change with or without drug; viability z-score with doxorubicin = -0.67; viability z-score without drug = 0; outcome = inactive
Phyhipl → combined z-score class = no change with or without drug; viability z-score with doxorubicin = -0.9; viability z-score without drug = -0.34; outcome = inactive
Prph → combined z-score class = no change with or without drug; viability z-score with doxorubicin = -0.11; viability z-score without drug = -0.17; outcome = inactive
Nipbl #1 → combined z-score class = low cell count with and without drug; viability z-score with doxorubicin = -4.5; viability z-score without drug = -2.87; outcome = inactive
Nipbl #2 → combined z-score class = no change with or without drug; viability z-score with doxorubicin = -0.45; viability z-score without drug = 0.67; outcome = inactive
Napsa → combined z-score class = low cell count with and without drug; viability z-score with doxorubicin = -3.15; viability z-score without drug = -3.2; outcome = inactive
Phka2 → combined z-score class = no change with or without drug; viability z-score with doxorubicin = -0.11; viability z-score without drug = -1.52; outcome = inactive
Rai1 → combined z-score class = no change with or without drug; viability z-score with doxorubicin = -1.24; viability z-score without drug = -0.51; outcome = inactive
Cbs → combined z-score class = no change with or without drug; viability z-score with doxorubicin = -1.57; viability z-score without drug = 0; outcome = inactive
Letm2 → combined z-score class = no change with or without drug; viability z-score with doxorubicin = 0; viability z-score without drug = -0.51; outcome = inactive
Qdpr → combined z-score class = no change with or without drug; viability z-score with doxorubicin = 0.22; viability z-score without drug = 0.84; outcome = inactive
